The source of these data is patent publication US20220298163A1, “BTK INHIBITORS WITH IMPROVED DUAL SELECTIVITY” (BEIGENE, LTD., priority 2017, published 2022).

A short description of the data set: Rat pharmacokinetic study. It is filed as in vivo, Male Sprague Dawley rats. Conditions: male, Sprague Dawley, plasma.

The term AUC(0-inf) denotes the area under the concentration-time curve extrapolated to infinity. A high value points to more exposure. Broadly, the bioavailability is dose-corrected exposure relative to a reference, in per cent. Low values mean little systemic uptake, high ones much systemic uptake. As a reminder, the clearance is a measure of how efficiently the substance is removed, as volume per time. A word on the Cmax: it is the peak of the concentration-time curve. Molecule `[2H]C([2H])([2H])Oc1cc(-c2nn3c(c2C(N)=O)NCCC3C2CCN(C(=O)C=C)CC2)cc(OC([2H])([2H])[2H])c1C` (single isomer, unassigned) [Example A11b, (R or S)-7-(1-acryloylpiperidin-4-yl)-2-(3,5-bis(methoxy-d3)-4-methylphenyl)-4,5,6,7-tetrahydropyrazolo[1,5-a]pyrimidine-3-carboxamide] returned an AUC(0-inf) (IV 1 mg·kg^−1 / PO 5 mg·kg^−1 study, route not given) of 4800 ng·h/mL. The molecule also came in with a bioavailability (oral bioavailability, PO 5 mg·kg^−1 vs IV 1 mg·kg^−1) of 69.5%. In addition, the clearance (single IV 1 mg·kg^−1) was found to be 13.7 mL/min/kg. Under “single PO 5 mg·kg^−1”, this molecule had a Cmax of 2250 ng/mL.
